Experimental data taken from patent publication EP0182984B1, “Use of fully synthetic alpha-human atrial natriuretic peptide (alpha-hANap)” (PHARMA BISSENDORF PEPTIDE GMBH, priority 1984, dated 1992).
At least one peptide structure holds a part that was inferred or is arguable (an end, a ring closure or a residue).

Columns and labels:
[1] = system: vasoconstrictive effect of noradrenaline; assay: reversal of noradrenaline-induced vasoconstriction
[2] = natriuretic effect upon intravenous administration; format: in vivo
[3] = system: vasoconstrictive effect of angiotensin; assay: inhibition of angiotensin-induced vasoconstriction

For `CC[C@H](C)[C@@H]1NC(=O)[C@H](CCCNC(=N)N)NC(=O)[C@H](CC(=O)O)NC(=O)[C@H](CCSC)NC(=O)[C@H](CCCNC(=N)N)NC(=O)CNC(=O)CNC(=O)[C@H](Cc2ccccc2)NC(=O)[C@@H](NC(=O)[C@H](CO)NC(=O)[C@H](CO)NC(=O)[C@H](CCCNC(=N)N)NC(=O)[C@H](CCCNC(=N)N)NC(=O)[C@H](CC(C)C)NC(=O)[C@@H](N)CO)CSSC[C@@H](C(=O)N[C@@H](CC(N)=O)C(=O)N[C@@H](CO)C(=O)N[C@@H](Cc2ccccc2)C(=O)N[C@@H](CCCNC(=N)N)C(=O)N[C@@H](Cc2ccc(O)cc2)C(=O)O)NC(=O)CNC(=O)[C@H](CC(C)C)NC(=O)CNC(=O)[C@H](CO)NC(=O)[C@H](CCC(N)=O)NC(=O)[C@H](C)NC(=O)CNC1=O` [alpha-hANaP, alpha-human atrial natriuretic peptide], the “vasoconstrictive effect of noradrenaline” value [1] was “capable of reversing”, the diuresis [2] was “rapid increase” and the sodium excretion [2] was “rapid increase”. The “vasoconstrictive effect of angiotensin” value [3] was “inhibits”.
